# PubChem BioAssay AID1487 (National Center for Advancing Translational Sciences (NCATS), 2009)
# This is one part of the list. Shown are side measurements of this screen, not its main read-out; they come without a call. Compounds called inactive in the main read-out are mostly missing here. Words in brackets tell the shape of the fitted curve; partial curves, single points and poor fits give uncertain potencies.
# Assay: qHTS Assay for Modulators of Lamin A Splicing
# Settings: HeLa LMNA splicing GFP/RFP minigene ratio, 48 h
# Method in brief: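 S3 HeLa stable clones carrying a lamin A-EGFP splicing minigene plus DsRed2 were seeded at 600 cells/well in Opti-MEM with 2% FBS, pin-dosed and incubated 48 h at 37°C. Acumen cytometry (488 nm) gave the GFP/RFP total-intensity ratio.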
# [1] = measured here: GFP splicing reporter channel
# [2] = measured here: RFP viability control channel
Structure (SMILES),AC50 [1],AC50 [2]
COc1ccc(CN(C)CC(=O)Nc2cc3oc4ccccc4c3cc2OC)c(OC)c1,"17.8 µM [rising, partial curve, poor fit]","22.4 µM [rising, partial curve]"
NC(=O)COC(=O)c1ccc(S(=O)(=O)NCc2ccco2)cc1,–,"0.562 µM [rising, partial curve, poor fit]"
COc1ccc(NC(=O)c2nn(C)c(=O)c3ccccc23)cc1S(=O)(=O)Nc1ccccc1Cl,–,"0.0891 µM [rising, single point]"
COc1ccc(CC(=O)Nc2ncc([N+](=O)[O-])s2)cc1OC,"3.16 µM [falling, full curve]","1.26 µM [falling, full curve]"
COc1ccc(NC(=O)COc2nsnc2N2CCCCC2)cc1,"11.2 µM [rising, partial curve, poor fit]","14.1 µM [rising, partial curve]"
Cn1c(SCc2ccc(C#N)cc2)nnc1-c1cccc(Cl)c1,"0.00447 µM [rising, full curve, poor fit]",–
CCc1ccc(C2=NN(S(C)(=O)=O)C(c3cccs3)C2)cc1 (stereo not drawn),–,"31.6 µM [rising, single point]"
CCc1cccc2c(C#N)cn(CC(=O)NCCOC)c12,"0.0355 µM [falling, full curve, poor fit]",–
c1ccc(C2=Nc3ccccc3SC2c2nc3ccccc3[nH]2)cc1 (stereo not drawn),"17.8 µM [rising, partial curve, poor fit]","14.1 µM [rising, partial curve]"
NC(=O)c1ccc(Oc2ccc(Cl)c3ccccc23)c([N+](=O)[O-])c1,"4.47 µM [rising, partial curve]","14.1 µM [rising, single point]"
O=C(CSc1nnc(-c2cccs2)o1)N1CCCc2ccccc21,"11.2 µM [rising, partial curve]","10 µM [rising, single point]"
O=C1N(c2ccccc2)C[C@@H]2C[C@@H](c3cccs3)N3CCC[C@@]123,"15.8 µM [falling, partial curve, poor fit]","11.2 µM [falling, partial curve]"
Cc1ccc(NC(=O)C2CCCN(c3ncnc4onc(C)c34)C2)c(Cl)c1 (stereo not drawn),"0.00562 µM [falling, full curve]",–
COc1ccc(-c2csc(Nc3cccnc3)n2)cc1,"10 µM [rising, partial curve, poor fit]","31.6 µM [rising, single point]"
O=C(O)C1CCCN(CCC=C(c2ccccc2)c2ccccc2)C1 (stereo not drawn),–,"0.0794 µM [falling, full curve, poor fit]"
CCSc1nc(N)c(C#N)c(-c2ccco2)c1C#N,–,"15.8 µM [rising, partial curve, poor fit]"
Cc1cc2cc(CNC(=O)c3ccc(C)c([N+](=O)[O-])c3)ccc2[nH]1,–,"17.8 µM [rising, single point]"
Cc1ccccc1Nc1nc(N)nc(CN2CCN(Cc3ccc4c(c3)OCO4)CC2)n1,"2.82 µM [falling, partial curve, poor fit]","3.16 µM [falling, partial curve, poor fit]"
CCOC(=O)c1[nH]c2ccccc2c1NC(=S)Nc1cc(C)ccc1C,"14.1 µM [rising, single point]","11.2 µM [rising, partial curve]"
COc1ccc(COCCN2CCN(S(=O)(=O)c3ccc(C)cc3)CCC2=O)cc1,–,"11.2 µM [rising, partial curve]"
CCOc1ccc(C2C(=O)N(C3CCCCCC3)CC(=O)N2Cc2ccc(F)cc2)cc1OC (stereo not drawn),"35.5 µM [falling, partial curve, poor fit]",–
CC(=O)OC[C@H]1O[C@@H](n2ncc(=O)[nH]c2=O)[C@H](OC(C)=O)[C@@H]1OC(C)=O,"0.562 µM [rising, full curve, poor fit]","0.562 µM [rising, full curve]"
CSc1ccccc1C(=O)N1CCN(c2ncccn2)CC1,–,"0.0251 µM [falling, full curve, poor fit]"
COc1cc(/C=N/NC(=O)c2ccoc2C)cc(OC)c1O,"7.94 µM [falling, partial curve]",–
C/C=C/Cn1c(SCc2ccc(Cl)cc2)nc2c1c(=O)[nH]c(=O)n2C,–,"14.1 µM [rising, single point]"
COc1cccc2c(=O)ccoc12,–,"12.6 µM [rising, single point]"
C=CCN1c2ccccc2[C@]23C[C@@H](C(=O)OC)N(C(C)=O)C2=NC(C(=O)OC)=C(C(=O)OC)[C@H]13,"0.000794 µM [rising, full curve, poor fit]","0.708 µM [rising, partial curve, poor fit]"

# Exported as tab-separated lines: 2 of the compounds above.
Structure (SMILES)	AC50 [1]	AC50 [2]
CCc1ccc(C2=NN(S(C)(=O)=O)C(c3cccs3)C2)cc1 (stereo not drawn)	–	31.6 µM [rising, single point]
O=C1N(c2ccccc2)C[C@@H]2C[C@@H](c3cccs3)N3CCC[C@@]123	15.8 µM [falling, partial curve, poor fit]	11.2 µM [falling, partial curve]

# (listing goes on)

Structure (SMILES),AC50 [1],AC50 [2]
COc1ccc(NC(=O)CN2CCN(c3nc(-c4cccc(OC)c4)cs3)CC2)cc1,–,"2.51 µM [rising, partial curve, poor fit]"
O=C(CCl)Nc1cccc2ncccc12,"35.5 µM [falling, single point]","35.5 µM [falling, single point]"
O/N=C\c1ccccc1Oc1ccc(F)cc1,"0.501 µM [falling, full curve, poor fit]","0.794 µM [falling, full curve, poor fit]"
Cc1nc(SCc2cc(=O)c3cccc(F)c3[nH]2)n[nH]1,–,"35.5 µM [rising, single point]"
COc1ccccc1Oc1ccc2c(c1)C(=O)N(c1cccc3ncccc13)C2=O,–,"12.6 µM [rising, single point]"
CCN1CCN(c2ncc(C(=O)Nc3cc(Cl)ccc3OC)c3ccccc23)CC1,"15.8 µM [rising, single point]","22.4 µM [rising, single point]"
Cc1cccc(-c2n[nH]c(=S)n2-c2ccccc2)c1[N+](=O)[O-],"4.47 µM [falling, single point]","5.62 µM [falling, single point]"
O=C(O)c1ccc(N2C(=O)CC(SC(=Nc3ccccc3)Nc3ccccc3)C2=O)cc1 (stereo not drawn),–,"17.8 µM [rising, single point]"
CC(C)c1ccc(NC(=O)CSc2ncnc3c2sc2ccccc23)cc1,–,"1.41 µM [rising, partial curve]"
COc1ccccc1NC(=O)c1ccc(NC(=O)CN(C)Cc2ccccc2F)cc1,–,"35.5 µM [falling, single point]"
COc1ccccc1NCC(=O)NNC(C)C(=O)Nc1cccc(Cl)c1 (stereo not drawn),"0.158 µM [rising, full curve, poor fit]","0.158 µM [rising, full curve, poor fit]"
Cc1ccc(S(=O)(=O)N(C)c2ccc(C(=O)N3CCCCC3)cc2)cc1,"0.0282 µM [rising, full curve, poor fit]","35.5 µM [rising, single point]"
Cc1ccc2nc(NCc3ccccc3)[nH]c2c1,"35.5 µM [rising, single point]","11.2 µM [rising, partial curve]"
CC(C)N=c1cc2n(-c3ccc(Cl)cc3)c3ccccc3nc-2cc1Nc1ccc(Cl)cc1,"0.178 µM [falling, full curve, poor fit]","11.2 µM [falling, single point]"
CCOC(=O)Cn1c(=O)n(-c2ccccc2OC)c2nc(-c3ccccc3)nc(C(N)=O)c21,–,"0.112 µM [falling, full curve, poor fit]"
O=C(Nc1ccc(S(=O)(=O)Nc2ncccn2)cc1)c1ccc(Br)o1,–,"0.0794 µM [falling, full curve, poor fit]"
O=C(O)c1ccccc1C(=O)Nc1n[nH]c(=S)s1,–,"5.62 µM [rising, single point]"
COc1ccnc(Oc2ccc(F)cc2)c1C(=O)N/C=N/OCc1ccc(F)cc1Cl,–,"35.5 µM [rising, single point]"
CCCN(CC1CC1)C(=O)CCc1nnc(C(OC)c2ccccc2)o1 (stereo not drawn),"5.62 µM [falling, single point]","5.01 µM [falling, single point]"
C=CCNC(=S)/C(=C(/[O-])c1ccccc1Br)[n+]1ccccc1,–,"0.178 µM [rising, full curve, poor fit]"
COc1cccc(NS(=O)(=O)c2ccc3[nH]c4c(c3c2)CCCCCC4)c1,"35.5 µM [falling, single point]","35.5 µM [falling, single point]"
S=C(NC1CCCCC1)N1CCc2ccccc2C1,"20 µM [rising, partial curve]","14.1 µM [rising, partial curve]"
CCn1c(N2CCN(S(=O)(=O)c3ccccc3C(F)(F)F)CC2)nc2ccccc21,–,"31.6 µM [rising, single point]"
O=C(Nc1ccc(Cl)c(Cl)c1)Nc1nnc(-c2ccncc2)s1,–,"17.8 µM [rising, single point]"
O=C(O)COn1c(-c2ccccc2)nc2ccc([N+](=O)[O-])cc21,–,"0.0282 µM [falling, full curve, poor fit]"
COc1cccc(Nc2nnc(SCC3CCCCO3)s2)c1 (stereo not drawn),–,"0.0355 µM [falling, full curve, poor fit]"
C[C@H]1Cc2c(-c3ccccc3)nc3c(c2CO1)CN(C(=O)c1cccnc1)CC3,"4.47 µM [rising, partial curve, poor fit]","6.31 µM [rising, partial curve, poor fit]"
